# Measured values taken from PubChem BioAssay AID2685 (National Center for Advancing Translational Sciences (NCATS), 2010).
# The campaign covered roughly 320,000 compounds. About 2,100 (0.66%) were called active. Inconclusive results, whose numbers are uncertain, are shown with a selection of clear calls. Calls come from the whole dose curve; as a rule, active = well fitted inhibition curve with a large enough effect in the signal ratio, with a control signal flat (not every such curve was filed as active); inconclusive = small, poorly fitted or top-dose-only effect, or effect the other way, or a change in a side signal; inactive = flat fitted curve, though single readings scatter; the % refers to the signal ratio. Potencies of inconclusive entries are doubtful fits and often do not repeat.
# Experiment: qHTS Assay for Lipid Storage Modulators in Drosophila S3 Cells
# Details: BODIPY lipid droplet fluorescence, 18-24 h, cells fed with added oleic acid; lipid storage change, negative = inhibition: at 46.1 µM (top of the series) unless noted
# Outline: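 Drosophila S3 cells got compounds at several concentrations plus oleic acid (400 uM solution). Laser-scanning cytometry with 488 nm excitation read lipid droplets at 500-530 nm and cells at 575-640 nm. Percent activity was relative to 20 uM Triacsin C.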
# % is set by controls: 0 for no effect and ±100 for the full control effect; potency is the fitted concentration of half-maximal effect.
Compound,Potency,"lipid storage change, negative = inhibition"
O=C(O)COc1ccc2c(-c3ccccc3)cc(=O)oc2c1,"inconclusive: 29.1 µM [falling, single point]",–
O=C(CN1C(=O)NC(c2ccccc2)(c2ccccc2)C1=O)N1CCN(c2ccc(F)cc2)CC1,"inconclusive: 20.6 µM [activator, single point]",–
O=C(Nc1ccc(-c2nnc3n2CCCCC3)cc1)c1cnccn1,"inconclusive: 13 µM [falling, partial curve, poor fit]",–
CC(C)C(OC(=O)c1nsc(Cl)c1Cl)C(=O)NC1CCCCC1 (stereo not drawn),–,inconclusive: 72.2%
Cc1ccc(C2NC(=O)c3c(sc4c3CCN(C)C4)N2)s1 (stereo not drawn),–,inconclusive: 13.8%
CC(=O)c1ccc(N2CCC(C)CC2)c(F)c1,–,inconclusive: 11.3%
Cc1cccc(N2CCN(C(=O)CN3C(=O)NC(C)(C4CC4)C3=O)CC2)c1C (stereo not drawn),–,inconclusive: -4.64%
Cc1cccc(N2CC(C(=O)Nc3nnc(SCc4ccccn4)s3)CC2=O)c1 (stereo not drawn),–,inconclusive: 9.79%
COc1cccc(NC(=O)NNC(=O)c2ccc3c(c2)NC(=O)C(C)(C)O3)c1,–,inconclusive: 36.3%
COc1ccc(Cc2noc(CN(C)CC3CCN(Cc4ccccc4)CC3)n2)cc1OC,–,inconclusive: 4.56%
CC(NC(=O)c1cccnc1)C(c1ccccc1)N1CCN(C)CC1 (stereo not drawn),"inconclusive: 20.6 µM [falling, single point]",–
Cc1ccc2c(C)c(C(=O)NCCc3ccco3)oc2c1C,"inconclusive: 23.1 µM [activator, single point]",–
Cc1ccc(P(=O)(CO)c2ccc(C)cc2)cc1,"inconclusive: 32.6 µM [falling, single point]",–
COc1ccc(CCNc2cc(C)nc3c(-c4ccccc4)cnn23)cc1OC,–,inconclusive: -7.31%
CC(C)N1C(=O)CSC1c1ccc(Br)cc1 (stereo not drawn),–,inconclusive: -15.7%
Cc1ccc(NC(=O)C(=O)NCc2ccncc2)cc1,–,inconclusive: 4.59%
CC1CC(C)(C)CC(=O)C1C(=O)c1ccccc1 (stereo not drawn),"inconclusive: 29.1 µM [activator, single point]",–
CCOc1ccc(NC(=O)C(=O)NCc2ccncc2)cc1,–,inconclusive: 23.2%
CCN(CC)CCN1C(=O)C(=O)/C(=C(/O)c2ccc(S(=O)(=O)N3CCOCC3)cc2)C1c1ccc(Cl)cc1 (stereo not drawn),–,inconclusive: 40.5%
Cc1ccc(Nc2cc(C)nc3c(C)cccc23)cc1,"inconclusive: 0.651 µM [falling, full curve, poor fit]",–
COCCn1c(SCC(=O)NC(C)c2ccc(F)cc2)nc2ccccc21 (stereo not drawn),–,inactive: -22.5%
CC(C)(C)c1ccc(C(=O)NCC(=O)O)cc1,–,inconclusive: 38%
COCC(=O)N(Cc1cc2ccc(C)cc2[nH]c1=O)c1cccc(C)c1,–,inconclusive: -19.4%
O=C1c2cccc([N+](=O)[O-])c2C(=O)N1CCO,"inconclusive: 29.1 µM [cytotoxic, single point]",–

Compound,Potency,"lipid storage change, negative = inhibition"
CN1CCN(S(=O)(=O)c2cccc(C(=O)Nc3cc(C(N)=O)cc(C(N)=O)c3)c2)CC1,"inconclusive: 0.116 µM [activator, single point]",–
CN(C)CCN(C(=O)c1ccc(S(=O)(=O)N2CCCC2)cc1)c1nc2ccc(Br)cc2s1,–,inconclusive: 11.1%
CCCCOC(=O)c1ccc(N/C(=N\S(=O)(=O)c2ccccc2)c2ccccc2)cc1,–,inconclusive: -8.31%
O=[N+]([O-])c1ccccc1SNc1ccc(Br)cn1,–,inconclusive: -13.6%
CCCCn1c(=O)[nH]c(=O)c2c1nc(-c1ccc(C#N)cc1)n2C1CCCC1,"inconclusive: 25.9 µM [falling, single point]",–
O=C(NCC1CCCO1)c1cc2ccccc2o1 (stereo not drawn),–,inconclusive: 30.8%
O=C(NCC(=O)N1CCN(Cc2ccccc2)CC1)c1ccc(Br)cc1,"inconclusive: 0.0291 µM [activator, full curve]",–
O=C(Cc1c(F)cccc1Cl)Nc1nc2ccccc2s1,–,inconclusive: -27.5% [cytotoxic]
COc1cccc(N2CCN(C(=O)CC(NC(=O)c3ccccc3)c3ccccc3)CC2)c1 (stereo not drawn),–,inconclusive: 4.97%
NC(=O)c1nn(-c2ccc(Cl)cc2Cl)c(=O)cc1O,"inconclusive: 4.11 µM [falling, full curve, poor fit]",–
Cc1ccc(-c2c[n+](=O)c3c(n2[O-])CCC3)cc1,–,inconclusive: -4.18%
CC(C)Cc1cc(C(=O)N2CCCC(CO)(Cc3ccc(F)cc3F)C2)n[nH]1 (stereo not drawn),"inconclusive: 5.17 µM [activator, full curve, poor fit]",–
COc1cccc(CN(C)C(=O)c2cccc(S(=O)(=O)N3CCN(c4ccc(F)cc4)CC3)c2)c1OC,–,inconclusive
CCN(CC(=O)Nc1ccccc1C(F)(F)F)C(=O)c1cccc(S(=O)(=O)N2CCN(C)CC2)c1,–,inconclusive: -28.4%
CC1CCCCN1C(=O)CSc1nnc2c(n1)[nH]c1ccccc12 (stereo not drawn),active: 0.58 µM,–
COc1ccc(S(=O)(=O)N2CCCOC2CNC(=O)C(=O)NCc2ccco2)cc1C (stereo not drawn),–,inconclusive: -22.3%
CC(C)CN(C(=O)CCCc1nc2ccccc2c(=O)[nH]1)c1c(N)n(Cc2ccccc2)c(=O)[nH]c1=O,–,inconclusive
COc1ccc(C(=O)NCC(=O)OCc2nc(N)nc(Nc3ccccc3C)n2)cc1,"inconclusive: 6.51 µM [activator, partial curve, poor fit]",–
CC(=O)NNc1nc(-c2ccc(NC(C)=O)cc2)cs1,"inconclusive: 1.46 µM [activator, partial curve, poor fit]",–
O=C(c1ccc(F)cc1)C1CCN(C(=O)c2ccncc2)CC1,–,inconclusive: -0.745%
CCOc1ccc(OCCC(=O)OCC(=O)Nc2ccc(Cl)cn2)cc1,–,inconclusive: -2.1%
Cc1ccc(-n2c(C)c(C)c3c(NCCO)ncnc32)cc1,–,inconclusive: 36.7%
Cc1cc(CNC(=O)c2cccc([N+](=O)[O-])c2C)c2ccccc2n1,–,inconclusive: 0.636%

# 12 entries from above, as tab-separated lines:
Compound	Potency	lipid storage change, negative = inhibition
CC(=O)c1ccc(N2CCC(C)CC2)c(F)c1	–	inconclusive: 11.3%
Cc1cccc(N2CCN(C(=O)CN3C(=O)NC(C)(C4CC4)C3=O)CC2)c1C (stereo not drawn)	–	inconclusive: -4.64%
Cc1cccc(N2CC(C(=O)Nc3nnc(SCc4ccccn4)s3)CC2=O)c1 (stereo not drawn)	–	inconclusive: 9.79%
COc1cccc(NC(=O)NNC(=O)c2ccc3c(c2)NC(=O)C(C)(C)O3)c1	–	inconclusive: 36.3%
COc1ccc(Cc2noc(CN(C)CC3CCN(Cc4ccccc4)CC3)n2)cc1OC	–	inconclusive: 4.56%
CC(NC(=O)c1cccnc1)C(c1ccccc1)N1CCN(C)CC1 (stereo not drawn)	inconclusive: 20.6 µM [falling, single point]	–
Cc1ccc2c(C)c(C(=O)NCCc3ccco3)oc2c1C	inconclusive: 23.1 µM [activator, single point]	–
Cc1ccc(P(=O)(CO)c2ccc(C)cc2)cc1	inconclusive: 32.6 µM [falling, single point]	–
COc1ccc(CCNc2cc(C)nc3c(-c4ccccc4)cnn23)cc1OC	–	inconclusive: -7.31%
CC(C)N1C(=O)CSC1c1ccc(Br)cc1 (stereo not drawn)	–	inconclusive: -15.7%
Cc1ccc(NC(=O)C(=O)NCc2ccncc2)cc1	–	inconclusive: 4.59%
CC1CC(C)(C)CC(=O)C1C(=O)c1ccccc1 (stereo not drawn)	inconclusive: 29.1 µM [activator, single point]	–
